Results as given in paper doi:10.1101/2025.01.29.635535.
Substitutions are numbered along the chain they refer to. These are yes or no findings as the source states them, for the method shown. Some results given as binding are weak or reduced against the parent protein; the word gives no strength. For some of these results: Tags and fused reporters may be left off the sequences shown.

Assays:
Assay in all cases: non-reducing SDS-PAGE and Western blot
HsEDEM3 (human) = target: T1, HsEDEM3 (human) (UniProt Q9BZQ6)
T1 sequence: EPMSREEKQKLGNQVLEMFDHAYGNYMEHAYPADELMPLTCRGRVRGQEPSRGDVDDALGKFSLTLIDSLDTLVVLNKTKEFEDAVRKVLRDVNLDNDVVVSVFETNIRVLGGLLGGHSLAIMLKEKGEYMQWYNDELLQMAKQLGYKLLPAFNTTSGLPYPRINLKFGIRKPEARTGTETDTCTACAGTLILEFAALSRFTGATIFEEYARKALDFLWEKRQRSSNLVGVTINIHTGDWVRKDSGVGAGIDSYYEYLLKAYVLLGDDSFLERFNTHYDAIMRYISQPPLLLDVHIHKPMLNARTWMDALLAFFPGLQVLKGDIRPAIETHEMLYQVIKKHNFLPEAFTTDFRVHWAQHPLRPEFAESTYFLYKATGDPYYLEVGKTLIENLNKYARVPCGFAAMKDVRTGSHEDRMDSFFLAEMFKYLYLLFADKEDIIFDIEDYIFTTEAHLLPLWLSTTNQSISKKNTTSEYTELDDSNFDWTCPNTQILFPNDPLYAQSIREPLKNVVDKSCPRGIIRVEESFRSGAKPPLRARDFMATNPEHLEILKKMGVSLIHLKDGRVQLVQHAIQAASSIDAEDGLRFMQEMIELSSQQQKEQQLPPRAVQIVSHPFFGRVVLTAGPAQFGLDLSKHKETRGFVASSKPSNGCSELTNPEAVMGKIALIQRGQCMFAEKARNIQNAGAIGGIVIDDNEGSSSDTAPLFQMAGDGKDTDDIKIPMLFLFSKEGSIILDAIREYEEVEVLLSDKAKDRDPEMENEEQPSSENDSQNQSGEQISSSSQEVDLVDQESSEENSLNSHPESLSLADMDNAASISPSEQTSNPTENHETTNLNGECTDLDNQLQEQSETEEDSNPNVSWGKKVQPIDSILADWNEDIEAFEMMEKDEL

[1] = target: T2, MmEDEM3-HA, wild type (Mus musculus) (UniProt Q2HXL6)
T2 sequence: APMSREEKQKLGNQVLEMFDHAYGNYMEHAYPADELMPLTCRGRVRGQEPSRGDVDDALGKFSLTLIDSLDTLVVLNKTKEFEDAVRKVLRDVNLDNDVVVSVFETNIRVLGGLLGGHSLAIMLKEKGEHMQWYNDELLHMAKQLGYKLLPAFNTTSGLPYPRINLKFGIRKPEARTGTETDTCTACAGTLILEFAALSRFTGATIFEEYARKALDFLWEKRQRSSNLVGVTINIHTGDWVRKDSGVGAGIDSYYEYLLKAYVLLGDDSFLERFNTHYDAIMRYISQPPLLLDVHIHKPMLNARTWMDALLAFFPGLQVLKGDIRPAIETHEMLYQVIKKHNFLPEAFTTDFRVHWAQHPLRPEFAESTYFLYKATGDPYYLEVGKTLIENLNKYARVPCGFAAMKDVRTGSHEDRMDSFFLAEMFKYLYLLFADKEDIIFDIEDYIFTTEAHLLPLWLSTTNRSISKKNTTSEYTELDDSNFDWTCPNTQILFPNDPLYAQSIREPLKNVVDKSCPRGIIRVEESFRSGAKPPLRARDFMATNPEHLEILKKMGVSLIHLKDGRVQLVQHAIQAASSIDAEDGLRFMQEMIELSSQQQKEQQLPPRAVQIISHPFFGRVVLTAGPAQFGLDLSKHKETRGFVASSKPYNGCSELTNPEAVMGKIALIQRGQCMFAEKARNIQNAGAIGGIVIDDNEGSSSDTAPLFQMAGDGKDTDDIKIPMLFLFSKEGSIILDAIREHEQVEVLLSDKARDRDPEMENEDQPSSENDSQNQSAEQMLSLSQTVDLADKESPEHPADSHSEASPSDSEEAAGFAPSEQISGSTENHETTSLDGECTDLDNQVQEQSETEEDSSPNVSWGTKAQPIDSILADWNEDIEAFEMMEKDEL

[2] = target: T3, MmEDEM3-HA C529S (Mus musculus) (UniProt Q2HXL6)
T3 sequence: T2 sequence with C487S

[3] = target: T4, MmEDEM3-HA C529S/C558S (Mus musculus) (UniProt Q2HXL6)
T4 sequence: T2 sequence with C487S, C516S

[4] = target: T5, MmEDEM3-HA C558S (Mus musculus) (UniProt Q2HXL6)
T5 sequence: T2 sequence with C516S

Row | Substance | binding (HsEDEM3 (human)) | binding [1] | binding [2] | binding [3] | binding [4]
1 | HsERp46-FLAG C92A/C353A double trapping mutant (from UniProt Q8NBS9 33-432) (enzyme) | binds | binds | – | – | –
2 | HsERp46-FLAG C92A/C220A/C353A triple trapping mutant (from UniProt Q8NBS9 33-432) (enzyme) | – | – | binds | binds | –

Results, then the substance that gave them:

Row | binding (HsEDEM3 (human)) | binding [1] | binding [2] | binding [3] | binding [4] | Substance
3 | binds | binds | binds | binds | binds | HsERp46-FLAG, wild type (from UniProt Q8NBS9 33-432) (enzyme)
4 | binds | binds | – | – | – | HsERp46-FLAG C92A trapping mutant (from UniProt Q8NBS9 33-432) (enzyme)
5 | binds | binds | – | – | – | HsERp46-FLAG C353A trapping mutant (from UniProt Q8NBS9 33-432) (enzyme)
